Assay results: publication PMC11243337

Protein sequences, listed by entry. Tags and fused reporters are not part of them. Residues count along the entry.
UniProt P24627, 20-708: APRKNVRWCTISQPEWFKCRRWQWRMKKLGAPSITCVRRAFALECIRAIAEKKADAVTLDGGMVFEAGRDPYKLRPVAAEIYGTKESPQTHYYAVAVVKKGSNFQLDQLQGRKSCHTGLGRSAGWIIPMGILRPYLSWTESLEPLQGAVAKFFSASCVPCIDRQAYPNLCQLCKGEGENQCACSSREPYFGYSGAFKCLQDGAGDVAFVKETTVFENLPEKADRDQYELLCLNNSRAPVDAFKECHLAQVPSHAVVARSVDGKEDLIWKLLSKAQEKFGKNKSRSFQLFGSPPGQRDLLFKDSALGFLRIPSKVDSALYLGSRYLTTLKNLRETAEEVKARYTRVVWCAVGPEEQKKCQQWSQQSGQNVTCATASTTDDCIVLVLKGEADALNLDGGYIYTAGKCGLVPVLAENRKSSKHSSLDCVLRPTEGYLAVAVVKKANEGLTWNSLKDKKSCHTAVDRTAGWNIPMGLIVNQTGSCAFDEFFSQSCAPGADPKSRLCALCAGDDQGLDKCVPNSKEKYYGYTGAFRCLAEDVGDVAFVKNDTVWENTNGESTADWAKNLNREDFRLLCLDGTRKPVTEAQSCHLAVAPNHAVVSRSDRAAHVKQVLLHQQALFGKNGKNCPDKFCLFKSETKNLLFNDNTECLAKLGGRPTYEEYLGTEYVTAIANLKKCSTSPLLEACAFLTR

Experiments:
[1] = target: Lactoferrin (Lf) (bovine (cow's milk)) (UniProt P24627); test: not stated here (CE-SELEX work); conditions: Lf species in cited work not stated here; Tris-EDTA pH 8.0, no added salt, 25 C, 10 min; 90 uL of 50 nM aptamer + 100 uL Lf (0-100 ug/mL); Ex 485/Em 528 nm. Specificity section; commercial protein; single-stranded DNA
[2] = target: Lactoferrin (Lf) (bovine (cow's milk)) (UniProt P24627); test: fluorescence quenching (6-FAM); conditions: Tris-EDTA pH 8.0, no added salt, 25 C, 10 min, 90 uL of 50 nM aptamer + 100 uL Lf (0-100 ug/mL), Ex 485/Em 528 nm. Specificity section, commercial protein, label: 3'-6-FAM, single-stranded DNA

Sequence	Kd [1] [µM]	binding result ([2]; Mg2+ or Ca2+, 50 or 100 mM, stronger effect than monovalent)	binding result ([2]; Na+ or K+, 50 or 100 mM)	binding result ([2]; citrate buffer or borate buffer)
TGGTGCTGCCCCTAGTCTCCGGCTGATAGCTGCTTCTTGG [Lf aptamer (Qu's group, as cited)]	0.0207	–	–	–
TGGTGCTGCCCCTAGTCTCCGGCTGATAGCTGCTTCTTGG [Lf aptamer, 3'-6-FAM]	–	binds more weakly	binds more weakly	binds more weakly

Construct, isoform or probe ends are uncertain for at least one entry. For some of these results: A weaker result is weaker than the reference pair of the same experiment. For some of these results: At least one verdict rests on a figure or table, not on a statement of the authors.
